Laboratory results taken from paper PMC9223522.
No constants are given. Whether binding was seen depends on the method and setting. In cells and extracts the contact can be indirect. Binding can be weak; no strength is given. Where a sequence is shown, tags or fusion partners need not be part of it. Blank lines part the entries; values can stand above or below the binder they belong to.

Key:
[1] = molecular target: Myc-PPARγ (peroxisome proliferator-activated receptor gamma); experiment: co-IP; two tagged plasmids co-transfected into HEK293T with PEI; lysed after 30 h in cold NP-40 lysis buffer; IP with anti-Myc antibody (Figure 5a) or M2 anti-Flag beads (Figure 5b), immunoblot
[2] = molecular target: HA-SIRT1 (Sirtuin 1); experiment: co-IP; constant pCMV-HA-SIRT1 and pCMV-Myc-PPARγ with a gradient amount of pCMV-Flag-DEPP co-transfected into HEK293T; lysed after 30 h in cold NP-40 lysis buffer; IP with anti-HA antibody, immunoblot

binding [1]: binds
B1: HA-DEPP (decidual protein induced by progesterone) (protein, UniProt Q8K2F3 1-205)
chain: MRSRLLLPVPHLPTIREMSEELSHGAAGQEPPASPSLDDYVRCICQLAQPTSVLDKVTAQSRPNRPSRPAWTREKRRQAESPGDSSLCVSSLQPTLPSPGTDNPLDWLFGKSQGEQADGRGRPNRTGSSDPWDVPRQMGKDTGRLCEARVPEHSLGRKPGPRHQTSDLKSWTSRKSCRALASVSSSRPSSILGTLYLHLPVIHEL

binding [2]: binds
B2: Flag-DEPP (protein, UniProt Q8K2F3 1-205)
chain: B1 chain
